From article PMC10456741

Biological target: T1, HPV16 E6 oncoprotein fragment, wild type (…) (HPV16)
T1 sequence: MSCCRSSRTRRETQL
Assay: two-hybrid; mating of Y187 (PDZ preys in pACT2-AD, Gal4 AD) with AH109 (E6 baits in pGBT9-BD, Gal4 BD); growth on SC Agar -L-W-H (HIS3 reporter), at least 72 h and up to 1 week at 30 °C or 2 weeks at room temperature

**Q.** For “USH1C PDZ tandem 1-2 (USH1C_1-2) from PDZome 2.0 (human) (domain or fragment)”, which binding is on record?
**A.** binds

Results are given in words; binding and its absence hold for the method and conditions named. Binding can be weak; no strength is given.
